Test results from article doi:10.1101/2022.03.27.486008.
No constants are given. Whether binding was seen depends on the method and setting. For some assays here: In cells and extracts the contact can be indirect. Some binding calls cover weakened binding; strength is not graded here. Where a sequence is shown, tags or fusion partners need not be part of it.

Protein sequences, listed by entry. Tags and fused reporters are not part of them.
UniProt Q39026: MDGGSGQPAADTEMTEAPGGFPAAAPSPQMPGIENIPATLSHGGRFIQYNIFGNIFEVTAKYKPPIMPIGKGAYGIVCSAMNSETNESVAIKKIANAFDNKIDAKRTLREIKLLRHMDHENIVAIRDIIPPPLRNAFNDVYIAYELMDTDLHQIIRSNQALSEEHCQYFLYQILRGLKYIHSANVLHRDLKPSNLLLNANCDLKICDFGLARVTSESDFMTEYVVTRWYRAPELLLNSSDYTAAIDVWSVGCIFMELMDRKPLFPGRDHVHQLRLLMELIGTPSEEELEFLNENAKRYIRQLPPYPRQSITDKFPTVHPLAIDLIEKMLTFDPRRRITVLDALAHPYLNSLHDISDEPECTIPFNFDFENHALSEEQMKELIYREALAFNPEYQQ

Tests used:
[1] = target: T1, MKKK20-cYFP (Arabidopsis thaliana) (UniProt Q9SND6); assay: split reporter
T1 sequence: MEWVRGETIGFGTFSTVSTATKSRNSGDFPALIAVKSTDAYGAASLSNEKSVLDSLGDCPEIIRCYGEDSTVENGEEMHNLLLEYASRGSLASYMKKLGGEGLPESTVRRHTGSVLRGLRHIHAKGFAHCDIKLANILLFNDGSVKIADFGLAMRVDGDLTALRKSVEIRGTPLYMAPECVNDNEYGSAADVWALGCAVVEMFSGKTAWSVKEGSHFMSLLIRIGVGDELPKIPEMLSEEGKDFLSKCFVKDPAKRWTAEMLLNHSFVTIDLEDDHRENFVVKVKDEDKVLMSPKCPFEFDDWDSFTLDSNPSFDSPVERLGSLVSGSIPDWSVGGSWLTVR

[2] = target: T2, MKKK20 fused to the GAL4 DNA-binding domain (BD-MKKK20) (Arabidopsis thaliana) (UniProt Q9SND6); assay: two-hybrid
T2 sequence: T1 sequence

[3] = target: T3, MKK3 fused to the GAL4 DNA-binding domain (BD) (Arabidopsis thaliana) (UniProt O80396); assay: two-hybrid
T3 sequence: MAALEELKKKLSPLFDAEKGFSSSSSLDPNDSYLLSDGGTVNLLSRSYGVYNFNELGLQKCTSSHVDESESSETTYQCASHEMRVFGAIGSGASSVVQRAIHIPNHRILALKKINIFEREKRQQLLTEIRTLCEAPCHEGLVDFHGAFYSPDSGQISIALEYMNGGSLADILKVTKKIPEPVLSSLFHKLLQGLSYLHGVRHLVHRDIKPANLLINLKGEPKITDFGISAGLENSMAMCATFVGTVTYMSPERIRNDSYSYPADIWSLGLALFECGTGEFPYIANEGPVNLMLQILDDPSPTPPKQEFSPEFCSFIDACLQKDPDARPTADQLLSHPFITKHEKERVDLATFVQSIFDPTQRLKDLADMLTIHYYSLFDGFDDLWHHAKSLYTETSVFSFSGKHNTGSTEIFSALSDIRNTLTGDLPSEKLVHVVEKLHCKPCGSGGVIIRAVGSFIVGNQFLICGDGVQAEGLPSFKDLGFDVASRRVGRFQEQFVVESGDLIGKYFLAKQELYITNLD

[4] = target: T4, MKK3-nYFP (Arabidopsis thaliana) (UniProt O80396); assay: split reporter
T4 sequence: T3 sequence

| Substance | binding [1] | binding [2] | other results |
| --- | --- | --- | --- |
| CaM1, nYFP-tagged (from UniProt P0DH95 1-149) | binds | – | – |
| CaM6, nYFP-tagged (from UniProt Q03509 1-149) | binds | – | – |
| CaM1 fused to the GAL4-activating domain (from UniProt P0DH95 1-149) | – | binds | – |
| CaM6 fused to the GAL4-activating domain (from UniProt Q03509 1-149) | – | binds | – |
| CaM4 fused to the GAL4-activating domain (from UniProt P0DH96 1-149) | – | binds | – |
| MPK6 fused to the GAL4-activating domain (AD) (from UniProt Q39026 1-395) | – | – | binding [3]: binds |
| CaM4, nYFP-tagged (from UniProt P0DH96 1-149) | binds | – | – |
| MPK6 for BiFC with MKK3-nYFP (from UniProt Q39026 1-395) | – | – | binding [4]: binds |
